Data published in the supplement of paper PMC12889115.
Some of the results follow. Values are raw readings; no control value is given beside them.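 In the initial screen, polymyxin B was used at a concentration that permeabilizes Salmonella's outer membrane but not its inner membrane. Maximum growth was set by DMSO wells with or without polymyxin B. Since plates varied, data were ranked per plate, and compounds giving the lowest OD600 advanced as hits.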

System: Salmonella enterica serovar Typhimurium SL1344
Test: bacterial growth OD600 after 18 h with compound and polymyxin B; higher = more bacterial growth (less inhibition)
Conditions: 50 µM, Mueller-Hinton broth

SMILES	bacterial growth OD600 (polymyxin B 0.75 µg/mL)	bacterial growth OD600 (polymyxin B 1 µg/mL)
Cc1csc(CN(C)C(=O)c2ccc3oc(Cc4ccc(Cl)cc4)nc3c2)n1	0.035	–
Cn1ccnc1CN1CCN(C(=O)CCN2Cc3ccccc3OC(c3ccccc3F)C2)CC1 (stereo not given)	0.739	–
COc1cc2nc(CN3CCCCC3c3nccs3)nc(N3CCCCC3)c2cc1OC (stereo not given)	0.716	–
Fc1cccc(CN2CCCC3(CCN(Cc4cccnc4)C3)C2)c1F (stereo not given)	–	0.668
O=C1CCCN1CCC1CCN(Cc2nc(-c3ccccc3)no2)CC1	–	0.943
Cc1n[nH]c(C)c1CNC(=O)C1CCCN(C2CCN(C(C)C)CC2)C1 (stereo not given)	1.04	–
Cc1cc(CNC(=O)c2c[nH]cn2)c2[nH]c(C)c(C)c2c1	0.952	–
Cc1noc(C)c1CCCNC(=O)c1ccc(NC2CCCC2)nc1	–	1.13
CCN(Cc1nccn1C)C(=O)c1ccc(N2CCCCCC2)nc1	0.816	–
COCC(=O)Nc1cc(C(=O)N2CCCN(C(=O)c3ccco3)CC2)c2c(c1)nc(C1CCC1)n2C	0.821	–
Cc1ccccc1C1(CC(=O)N2CCCC2c2nccs2)CC(=O)N(Cc2ccncc2)C1=O (stereo not given)	0.825	–
COC(=O)[C@@H](C)NC(=O)c1coc(COc2cccc(C(F)(F)F)c2)n1	0.817	–
Cc1cccc(C(=O)N2CCC(C(Cc3ccccc3C)N(C)C(=O)Cn3cccn3)CC2)c1 (stereo not given)	0.817	–
Cc1n[nH]c(C)c1CN(C)C(=O)c1cc(COc2cccc(F)c2)[nH]n1	0.994	–
COc1ccc(CC2(CCC(=O)N(C)C(C)c3ccon3)CCC(=O)N2)c2ccccc12 (stereo not given)	0.766	–
O=C(CCC1CCCN(Cc2cccn2-c2nccs2)C1)Nc1ccccc1F (stereo not given)	–	0.895
Cc1noc(C)c1CCC(=O)N1CCOC(CCCC(C)C)C1 (stereo not given)	–	0.922
CSCCN1C(=O)CCC1CCNCCOc1ccc(F)cc1 (stereo not given)	0.897	–
O=C(C[n+]1cc([O-])on1)N1CCCC(CCc2cccc(F)c2)C1 (stereo not given)	0.597	–
C[C@@H]1CN(C2(C(=O)NCc3cn4ccccc4n3)Cc3ccccc3C2)C[C@H](C)O1	0.788	–

Sorted by heavy-atom count (smallest number first): some entries from above.
SMILES	bacterial growth OD600 (polymyxin B 0.75 µg/mL)	bacterial growth OD600 (polymyxin B 1 µg/mL)
O=C1CCCN1CCC1CCN(Cc2nc(-c3ccccc3)no2)CC1	–	0.943
Cn1ccnc1CN1CCN(C(=O)CCN2Cc3ccccc3OC(c3ccccc3F)C2)CC1 (stereo not given)	0.739	–
COCC(=O)Nc1cc(C(=O)N2CCCN(C(=O)c3ccco3)CC2)c2c(c1)nc(C1CCC1)n2C	0.821	–
